# Earlier results, collected in patent publication US20200352795A1, “WETNESS INDICATOR WITH HARDENERS” (SAVARE' I.C. S.r.l., priority 2018, published 2020).
# At least one structure is not confirmed: it was looked up by name or label, or the drawing left a doubt.
Compound,High pH Color,Low pH Color,pKa of pH-indicator colorant
CC[n+]1c(/C=C/c2ccc(N(C)C)cc2)ccc2ccccc21.[I-] [Quinaldine Red],Red,Colorless,
Cc1c(C2(c3cc(Br)c(O)c(Br)c3C)OS(=O)(=O)c3ccccc32)cc(Br)c(O)c1Br [Bromocresol Green Free Acid],Blue-Green,Yellow,4.6
CN(C)c1ccc(N=Nc2ccc(S(=O)(=O)[O-])cc2)cc1.[Na+] [Methyl Orange],Yellow,Red,
CCN(CC)c1ccc(N=Nc2ccccc2C(=O)O)cc1 [Ethyl Red],Yellow,Red,
O=S1(=O)OC(c2cc(Br)c(O)c(Br)c2)(c2cc(Br)c(O)c(Br)c2)c2ccccc21 [Bromophenol Blue Free Acid],Blue,Yellow,
